{"source": "paper PMC11276760", "biological_target": "integrin β1 (on KYSE410 ESCC cells) (UniProt P05556)", "assay": "flow cytometry (cell binding)", "settings": "0.01 M PBS, 4.5 g/L glucose, 5 mM MgCl2, 1 mg/mL BSA, 0.1 mg/mL yeast tRNA, 30 min on ice, ~1e5 cells, pH not stated, protein on the cell surface", "key": {"[1]": {"settings": "250 nM, similar to A2(35), label: 5' FAM, single-stranded DNA"}, "[2]": {"settings": "250 nM, label: 5' FAM, single-stranded DNA"}}, "note": "For at least one entry, the source does not settle the construct or the ends of the probe. Results from cells or extracts need not show a direct contact. Negatives hold for the conditions tested.", "data": [{"sequence": "ACGACGACGACGACGACGTTTCGCGAATGCTATCGGGGCTAAGTATCAAAATGAGC [A2(35)-DLS2]", "values": [{"measurement": "binding result", "setting": "[1]", "result": "binds"}]}, {"sequence": "AGAAGGAAGGAGAGCGACACCACCACGCGAATGCTATCGGGGCTAAGTATCAAAATGAGCTATCAGTGGTCGGTCGTCAT [A2(80)]", "values": [{"measurement": "binding result", "setting": "[2]", "result": "binds"}]}, {"sequence": "CACCACGCGAATGCTATCGGGGCTAAGTATCAAAATGAGC [A2(40)]", "values": [{"measurement": "binding result", "setting": "250 nM, similar to A2(80), label: 5' FAM, single-stranded DNA", "result": "binds"}]}, {"sequence": "CGAATGCTATCG [A2(12)]", "values": [{"measurement": "binding result", "setting": "[2]", "result": "no binding"}]}, {"sequence": "CGTCGTCGTCGTCGTCGTTTTCGCGAATGCTATCGGGGCTAAGTATCAAAATGAGC / ACGACGACGACGACGACGTTTCGCGAATGCTATCGGGGCTAAGTATCAAAATGAGC [BAD (bivalent aptamer-DNA carrier)]", "values": [{"measurement": "binding result", "setting": "doxorubicin-loaded (BADD), similar to BAD, label: 5' …", "result": "binds"}]}, {"sequence": "CGTCGTCGTCGTCGTCGTTTTCGCGAATGCTATCGGGGCTAAGTATCAAAATGAGC [A2(35)-DLS1]", "values": [{"measurement": "binding result", "setting": "[1]", "result": "binds"}]}, {"sequence": "GCTAAGTATCAAAATGAGC [A2(19)]", "values": [{"measurement": "binding result", "setting": "[2]", "result": "no binding"}]}]}
